PubChem BioAssay AID1224830 – NIAID, 2016
Assay: 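Regulators of TLR4 signalling towards TNF-alpha in macrophage-like cells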 (primary screen). Cell system: human THP-1 monocytic leukaemia cells, TNF dual-luciferase reporter clone, PMA-differentiated to macrophage-like cells. Reagents: siRNA pool against human genes, 50 nM. Duration: LPS for 4 h, given about 3 days after siRNA transfection. Treatment: bacterial LPS (TLR4 ligand), 10 ng/ml. Detection: 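TNF firefly reporter luminescence divided by renilla, normalised to the plate median, then turned into a robust z-score for each replicate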. Direction: TNF reporter robust z-score: higher = stronger TNF reporter response to LPS. Hit rule: 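a well is active when its z-score exceeds 2.8 or falls below -1.5; control wells carry no call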.
This is one part, drawn at random, of about 18,000 deposited reagents. About 2,900 of them (16%) were called active. 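Calls are made per well; low scores hint the gene aids the LPS response, high scores that it dampens it.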 Repeated entries: four replicate wells of each siRNA pool.

| Target gene | TNF reporter robust z-score | activity call |
| --- | --- | --- |
| ZC2HC1C (zinc finger C2HC-type containing 1C) | -0.86 | inactive |
| ZC2HC1C (zinc finger C2HC-type containing 1C) | -0.42 | inactive |
| ZC2HC1C (zinc finger C2HC-type containing 1C) | -0.64 | inactive |
| ZC2HC1C (zinc finger C2HC-type containing 1C) | -1.02 | inactive |
| FAM204A (family with sequence similarity 204 member A) | 2.96 | active |
| FAM204A (family with sequence similarity 204 member A) | -0.32 | inactive |
| FAM204A (family with sequence similarity 204 member A) | 0.4 | inactive |
| FAM204A (family with sequence similarity 204 member A) | 0.7 | inactive |
| EIF4A1 (eukaryotic translation initiation factor 4A1) | -0.93 | inactive |
| EIF4A1 (eukaryotic translation initiation factor 4A1) | -1.28 | inactive |
| EIF4A1 (eukaryotic translation initiation factor 4A1) | -1.29 | inactive |
| EIF4A1 (eukaryotic translation initiation factor 4A1) | -0.25 | inactive |
| TSPAN11 (tetraspanin 11) | 2.28 | inactive |
| TSPAN11 (tetraspanin 11) | 4.34 | active |
| TSPAN11 (tetraspanin 11) | 1.38 | inactive |
| TSPAN11 (tetraspanin 11) | -1.01 | inactive |
| PLSCR1 (phospholipid scramblase 1) | -1.23 | inactive |
| PLSCR1 (phospholipid scramblase 1) | -0.76 | inactive |
| PLSCR1 (phospholipid scramblase 1) | -1.38 | inactive |
| PLSCR1 (phospholipid scramblase 1) | -0.39 | inactive |
| ACBD5 (acyl-CoA binding domain containing 5) | 1.5 | inactive |
| ACBD5 (acyl-CoA binding domain containing 5) | 1.71 | inactive |
| ACBD5 (acyl-CoA binding domain containing 5) | 1.29 | inactive |
| ACBD5 (acyl-CoA binding domain containing 5) | 2.5 | inactive |
| CAND1 (cullin associated and neddylation dissociated 1) | -1.25 | inactive |
| CAND1 (cullin associated and neddylation dissociated 1) | -0.78 | inactive |
| CAND1 (cullin associated and neddylation dissociated 1) | -1.12 | inactive |
| CAND1 (cullin associated and neddylation dissociated 1) | -0.34 | inactive |
| FRG2 (FSHD region gene 2) | -1.19 | inactive |
| FRG2 (FSHD region gene 2) | -1.13 | inactive |
| FRG2 (FSHD region gene 2) | -0.68 | inactive |
| FRG2 (FSHD region gene 2) | -1.05 | inactive |
| MRPS18B (mitochondrial ribosomal protein S18B) | -0.92 | inactive |
| MRPS18B (mitochondrial ribosomal protein S18B) | -0.89 | inactive |
| MRPS18B (mitochondrial ribosomal protein S18B) | -0.48 | inactive |
| MRPS18B (mitochondrial ribosomal protein S18B) | -0.06 | inactive |
| STAG1 (STAG1 cohesin complex component) | -0.51 | inactive |
| STAG1 (STAG1 cohesin complex component) | -0.14 | inactive |
| STAG1 (STAG1 cohesin complex component) | -0.31 | inactive |
| STAG1 (STAG1 cohesin complex component) | 0.12 | inactive |
| RNPEPL1 (arginyl aminopeptidase like 1) | -0.38 | inactive |
| RNPEPL1 (arginyl aminopeptidase like 1) | 2.1 | inactive |
| RNPEPL1 (arginyl aminopeptidase like 1) | 3.17 | active |
| RNPEPL1 (arginyl aminopeptidase like 1) | 0.64 | inactive |
| MIB2 (MIB E3 ubiquitin protein ligase 2) | 1.92 | inactive |
| MIB2 (MIB E3 ubiquitin protein ligase 2) | 1.8 | inactive |
| MIB2 (MIB E3 ubiquitin protein ligase 2) | 3.08 | active |
| MIB2 (MIB E3 ubiquitin protein ligase 2) | 2.76 | inactive |
| CHRNG (cholinergic receptor nicotinic gamma subunit) | -1.24 | inactive |
| CHRNG (cholinergic receptor nicotinic gamma subunit) | 0.59 | inactive |
| CHRNG (cholinergic receptor nicotinic gamma subunit) | -0.4 | inactive |
| CHRNG (cholinergic receptor nicotinic gamma subunit) | 0.83 | inactive |
| ADRA1A (adrenoceptor alpha 1A) | -0.04 | inactive |
| ADRA1A (adrenoceptor alpha 1A) | 0.04 | inactive |
| ADRA1A (adrenoceptor alpha 1A) | -0.26 | inactive |
| ADRA1A (adrenoceptor alpha 1A) | 0.23 | inactive |
| ARAP2 (ArfGAP with RhoGAP domain, ankyrin repeat and PH domain 2) | 2.42 | inactive |
| ARAP2 (ArfGAP with RhoGAP domain, ankyrin repeat and PH domain 2) | 2.22 | inactive |
| ARAP2 (ArfGAP with RhoGAP domain, ankyrin repeat and PH domain 2) | 0.71 | inactive |
| ARAP2 (ArfGAP with RhoGAP domain, ankyrin repeat and PH domain 2) | 1.21 | inactive |
| HNRNPA1L2 (heterogeneous nuclear ribonucleoprotein A1 like 2) | -1.65 | active |
| HNRNPA1L2 (heterogeneous nuclear ribonucleoprotein A1 like 2) | -1.75 | active |
| HNRNPA1L2 (heterogeneous nuclear ribonucleoprotein A1 like 2) | -0.96 | inactive |
| HNRNPA1L2 (heterogeneous nuclear ribonucleoprotein A1 like 2) | -0.67 | inactive |
| CLPSL2 (colipase like 2) | -0.44 | inactive |
| CLPSL2 (colipase like 2) | 0.32 | inactive |
| CLPSL2 (colipase like 2) | -0.95 | inactive |
| CLPSL2 (colipase like 2) | 0.44 | inactive |
| CD40 (CD40 molecule) | 2.03 | inactive |
| CD40 (CD40 molecule) | 1.35 | inactive |
| CD40 (CD40 molecule) | 1.33 | inactive |
| CD40 (CD40 molecule) | 1.89 | inactive |
| PDZRN4 (PDZ domain containing ring finger 4) | 4.14 | active |
| PDZRN4 (PDZ domain containing ring finger 4) | 1.21 | inactive |
| PDZRN4 (PDZ domain containing ring finger 4) | 3.19 | active |
| PDZRN4 (PDZ domain containing ring finger 4) | 1.09 | inactive |
| WDR82 (WD repeat domain 82) | 0.23 | inactive |
| WDR82 (WD repeat domain 82) | 0.67 | inactive |
| WDR82 (WD repeat domain 82) | -0.34 | inactive |
| WDR82 (WD repeat domain 82) | -0.52 | inactive |
| ADGRD2 (adhesion G protein-coupled receptor D2) | 0.43 | inactive |
| ADGRD2 (adhesion G protein-coupled receptor D2) | -0.23 | inactive |
| ADGRD2 (adhesion G protein-coupled receptor D2) | 0.08 | inactive |
| ADGRD2 (adhesion G protein-coupled receptor D2) | 0.34 | inactive |
| RASAL1 (RAS protein activator like 1) | -0.61 | inactive |
| RASAL1 (RAS protein activator like 1) | -0.45 | inactive |
| RASAL1 (RAS protein activator like 1) | -1.03 | inactive |
| RASAL1 (RAS protein activator like 1) | -1.56 | active |
| RLN1 (relaxin 1) | – | inactive |
| RLN1 (relaxin 1) | 0.14 | inactive |
| RLN1 (relaxin 1) | 0.04 | inactive |
| RLN1 (relaxin 1) | -0.02 | inactive |
| RLN1 (relaxin 1) | -0.85 | inactive |

10 entries from above, set out differently.
Target gene,TNF reporter robust z-score,activity call
CAND1 (cullin associated and neddylation dissociated 1),-1.25,inactive
CAND1 (cullin associated and neddylation dissociated 1),-0.78,inactive
CAND1 (cullin associated and neddylation dissociated 1),-1.12,inactive
CAND1 (cullin associated and neddylation dissociated 1),-0.34,inactive
FRG2 (FSHD region gene 2),-1.19,inactive
FRG2 (FSHD region gene 2),-1.13,inactive
FRG2 (FSHD region gene 2),-0.68,inactive
FRG2 (FSHD region gene 2),-1.05,inactive
MRPS18B (mitochondrial ribosomal protein S18B),-0.92,inactive
MRPS18B (mitochondrial ribosomal protein S18B),-0.89,inactive

Continued:
| Target gene | TNF reporter robust z-score | activity call |
| --- | --- | --- |
| SUGP2 (SURP and G-patch domain containing 2) | -0.25 | inactive |
| SUGP2 (SURP and G-patch domain containing 2) | 0.08 | inactive |
| SUGP2 (SURP and G-patch domain containing 2) | 0.49 | inactive |
| SUGP2 (SURP and G-patch domain containing 2) | 0 | inactive |
| SUCLG1 (succinate-CoA ligase GDP/ADP-forming subunit alpha) | -1.39 | inactive |
| SUCLG1 (succinate-CoA ligase GDP/ADP-forming subunit alpha) | 0.48 | inactive |
| SUCLG1 (succinate-CoA ligase GDP/ADP-forming subunit alpha) | 1.11 | inactive |
| SUCLG1 (succinate-CoA ligase GDP/ADP-forming subunit alpha) | 0.82 | inactive |
| C14orf119 (chromosome 14 open reading frame 119) | 0.39 | inactive |
| C14orf119 (chromosome 14 open reading frame 119) | 1.04 | inactive |
| C14orf119 (chromosome 14 open reading frame 119) | 2.19 | inactive |
| C14orf119 (chromosome 14 open reading frame 119) | 0.95 | inactive |
| MBD2 (methyl-CpG binding domain protein 2) | -1.15 | inactive |
| MBD2 (methyl-CpG binding domain protein 2) | -0.98 | inactive |
| MBD2 (methyl-CpG binding domain protein 2) | -1.1 | inactive |
| MBD2 (methyl-CpG binding domain protein 2) | -1.22 | inactive |
| HGS (hepatocyte growth factor-regulated tyrosine kinase substrate) | -0.28 | inactive |
| HGS (hepatocyte growth factor-regulated tyrosine kinase substrate) | -0.04 | inactive |
| HGS (hepatocyte growth factor-regulated tyrosine kinase substrate) | -0.32 | inactive |
| HGS (hepatocyte growth factor-regulated tyrosine kinase substrate) | 4.72 | active |
| PHF21A (PHD finger protein 21A) | -1.11 | inactive |
| PHF21A (PHD finger protein 21A) | -0.31 | inactive |
| PHF21A (PHD finger protein 21A) | -1.32 | inactive |
| PHF21A (PHD finger protein 21A) | -1.53 | active |
| MYOM3 (myomesin 3) | -0.34 | inactive |
| MYOM3 (myomesin 3) | -0.62 | inactive |
| MYOM3 (myomesin 3) | -0.31 | inactive |
| MYOM3 (myomesin 3) | -0.01 | inactive |
| CXCL13 (C-X-C motif chemokine ligand 13) | -1.34 | inactive |
| CXCL13 (C-X-C motif chemokine ligand 13) | -0.47 | inactive |
| CXCL13 (C-X-C motif chemokine ligand 13) | -1.23 | inactive |
| CXCL13 (C-X-C motif chemokine ligand 13) | -0.46 | inactive |
| MMP11 (matrix metallopeptidase 11) | -1.24 | inactive |
| MMP11 (matrix metallopeptidase 11) | -0.44 | inactive |
| MMP11 (matrix metallopeptidase 11) | 1.01 | inactive |
| MMP11 (matrix metallopeptidase 11) | 2.01 | inactive |
| PON2 (paraoxonase 2) | -0.32 | inactive |
| PON2 (paraoxonase 2) | -0.16 | inactive |
| PON2 (paraoxonase 2) | -0.49 | inactive |
| PON2 (paraoxonase 2) | 0.74 | inactive |
| MINAR1 (membrane integral NOTCH2 associated receptor 1) | 0.04 | inactive |
| MINAR1 (membrane integral NOTCH2 associated receptor 1) | 1.09 | inactive |
| MINAR1 (membrane integral NOTCH2 associated receptor 1) | 0.94 | inactive |
| MINAR1 (membrane integral NOTCH2 associated receptor 1) | 0.59 | inactive |
| AP4E1 (adaptor related protein complex 4 subunit epsilon 1) | -0.42 | inactive |
| AP4E1 (adaptor related protein complex 4 subunit epsilon 1) | 0.12 | inactive |
| AP4E1 (adaptor related protein complex 4 subunit epsilon 1) | -0.22 | inactive |
| AP4E1 (adaptor related protein complex 4 subunit epsilon 1) | 0.85 | inactive |
